# From paper PMC9974436
# Amino acid sequences for entries named in this document (tags omitted). Residues count along the entry.
# UniProt P24369, residues 34-216: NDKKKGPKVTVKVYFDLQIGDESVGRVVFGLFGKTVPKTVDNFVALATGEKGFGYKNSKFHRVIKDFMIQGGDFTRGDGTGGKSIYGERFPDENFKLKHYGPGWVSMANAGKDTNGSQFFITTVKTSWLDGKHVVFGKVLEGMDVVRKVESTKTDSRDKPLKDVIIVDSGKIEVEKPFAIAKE
# UniProt Q9DBG6, residues 23-631: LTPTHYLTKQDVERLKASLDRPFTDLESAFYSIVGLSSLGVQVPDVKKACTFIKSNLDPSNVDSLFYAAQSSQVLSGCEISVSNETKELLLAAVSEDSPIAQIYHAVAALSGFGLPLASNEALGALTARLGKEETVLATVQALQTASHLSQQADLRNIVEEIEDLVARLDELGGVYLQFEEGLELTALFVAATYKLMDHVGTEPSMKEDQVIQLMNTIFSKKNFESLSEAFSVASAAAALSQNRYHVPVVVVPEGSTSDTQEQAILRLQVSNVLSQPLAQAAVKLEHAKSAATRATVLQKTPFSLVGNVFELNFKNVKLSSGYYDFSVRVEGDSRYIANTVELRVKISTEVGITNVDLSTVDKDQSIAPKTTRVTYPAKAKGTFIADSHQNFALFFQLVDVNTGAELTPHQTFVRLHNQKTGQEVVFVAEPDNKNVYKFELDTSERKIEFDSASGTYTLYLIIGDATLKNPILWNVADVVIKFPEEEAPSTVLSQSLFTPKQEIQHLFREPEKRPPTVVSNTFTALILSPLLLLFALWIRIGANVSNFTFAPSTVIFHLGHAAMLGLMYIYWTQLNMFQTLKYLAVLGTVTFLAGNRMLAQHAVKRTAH
# UniProt P27773, residues 25-505: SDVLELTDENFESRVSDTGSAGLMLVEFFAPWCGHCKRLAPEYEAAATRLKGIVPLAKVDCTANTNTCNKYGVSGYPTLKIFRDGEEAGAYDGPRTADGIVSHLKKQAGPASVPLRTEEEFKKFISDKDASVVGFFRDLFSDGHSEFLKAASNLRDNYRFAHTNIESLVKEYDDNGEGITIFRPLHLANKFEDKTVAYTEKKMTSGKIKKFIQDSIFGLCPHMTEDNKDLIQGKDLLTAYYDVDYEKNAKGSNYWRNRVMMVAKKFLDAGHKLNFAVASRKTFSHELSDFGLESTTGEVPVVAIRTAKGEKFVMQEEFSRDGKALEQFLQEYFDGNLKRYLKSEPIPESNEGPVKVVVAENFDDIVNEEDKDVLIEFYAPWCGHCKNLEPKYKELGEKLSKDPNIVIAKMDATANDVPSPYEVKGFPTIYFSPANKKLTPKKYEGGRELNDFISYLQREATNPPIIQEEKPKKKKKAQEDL
# These are yes or no findings as the source states them, for the method shown. Binding seen in cells or lysates may run through a third protein. A yes stands for co-enrichment or nearness to the bait. Other partners may have been found.
# T1: 1700029I15Rik (mouse (endogenous in testis)) (UniProt Q8CF31)
# T1 sequence: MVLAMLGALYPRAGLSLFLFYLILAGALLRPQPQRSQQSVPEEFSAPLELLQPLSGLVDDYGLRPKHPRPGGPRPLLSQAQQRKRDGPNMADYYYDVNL
# B1: defender against cell death 1 (DAD1) (protein, UniProt P61804 1-113)
# chain: MSASVVSVISRFLEEYLSSTPQRLKLLDAYLLYILLTGALQFGYCLLVGTFPFNSFLSGFISCVGSFILAVCLRIQINPQNKADFQGISPERAFADFLFASTILHLVVMNFVG
# B2: oligosaccharyltransferase complex noncatalytic subunit (OSTC) (protein, UniProt Q78XF5 1-149)
# chain: METLYRVPFLVLECPNLKLKKPPWVHMPSAMTVYALVVVSYFLITGGIIYDVIVEPPSVGSMTDEHGHQRPVAFLAYRVNGQYIMEGLASSFLFTMGGLGFIILDRSNAPNIPKLNRFLLLFIGFVCVLLSFFMARVFMRMKLPGYLMG
# B3: transmembrane p24 trafficking protein 4 (TMED4) (protein, UniProt Q8R1V4 30-227)
# chain: LYFHIGETEKRCFIEEIPDETMVIGNYRTQMWDKQKEVFLPSTPGLGMHVEVKDPDGKVVLSRQYGSEGRFTFTSHTPGDHQICLHSNSTRMALFAGGKLRVHLDIQVGEHANNYPEIAAKDKLTELQLRARQLLDQVEQIQKEQDYQRYREERFRLTSESTNQRVLWWSIAQTVILILTGIWQMRHLKSFFEAKKLV
# B4: transmembrane p24 trafficking protein 10 (TMED10) (protein, UniProt Q9D1D4 32-219)
# chain: ISFHLPVNSRKCLREEIHKDLLVTGAYEITDQSGGAGGLRTHLKITDSAGHILYAKEDATKGKFAFTTEDYDMFEVCFESKGTGRIPDQLVILDMKHGVEAKNYEEIAKVEKLKPLEVELRRLEDLSESIVNDFAYMKKREEEMRDTNESTNTRVLYFSIFSMFCLIGLATWQVFYLRRFFKAKKLIE
# B5: signal peptide peptidase like 2C (SPPL2C) (protein, UniProt A2A6C4 29-690)
# chain: EYGLVRVVSKNWSKDYCVLYSSDYVNLPRDLHHAPLLSLHDGTKTPWCPDEDSFHQAQDSSPRQRPLHQTTTMVTRGNCSFYAKGWLAQDQGAQGLLIVSRARNQQCSDTISKPQDPSKPWPALTIPVAVLRYTDMLDIVSHTYGDTDVRVAMFAPLEPVTDYNMAIIFILAVGTVAAGGYWAGLMEANKLQRRQAQRGGGLGGHNQQQTVAAERSQRAWEDDDFEDAPMDFTPAMTGAVVTMSCSIMILLYFFYDCFVYVMIGIFSLGASTGLYSCLAPILCHLPLWRYQWVLPGQRVSVTWPLLLLAGLCAMVTVLWVIHRNEDHWAWLLQDTLGVAYCLFVLRRVRLPTFKNCTLFLLALLAFDVFFVFITPLFTKTGESIMVEVASGPADSSSHERLPMVLKVPRLSFSALTLCNQPFSILGFGDIVVPGFLVAYCHRFDMQVQSRQVYYMACTVAYAVGLLVTFVAMILMQMGQPALLYLVSSTLLTSLAVATCRQEFTLFWTGQGRAKIPAEPVAQPCIASAVGSKMKLEDAKDSRTTNRFEQAVDGESGDLESSTGDDMAEMVTLSEDEATSPEGHSESSEGWSDTNLDPNELPSGSPMALEAMLIPLIQPIPHPSELGHIRTQSRVHDSSLPWMGLHKRKGLKVKKSMSAQAPL
# Assays:
# [1] = biological target: T1, 1700029I15Rik (mouse (endogenous in testis)); assay: affinity purification with mass spectrometry; co-IP/MS from wild-type and knockout mouse testis lysates with antibody-crosslinked agarose resin; three biological replicates; hits specific to wild type in at least two replicates
# [2] = biological target: T1, 1700029I15Rik (mouse (endogenous in testis)); assay: affinity purification with mass spectrometry; co-IP/MS from mouse testes with non-crosslinked magnetic beads; interactions scored by the specificity of detected spectra
Molecule,binding [1],binding [2]
peptidyl-prolyl cis–trans isomerase B (PPIB) (from UniProt P24369 34-216),binds,–
ribophorin II (RPN2) (from UniProt Q9DBG6 23-631),binds,–
protein disulfide isomerase family A member 3 (PDIA3) (from UniProt P27773 25-505),binds,binds
B1,binds,–
B2,binds,–
B3,binds,–
B4,binds,–
B5,–,binds
